Some results were stated once for a whole list of compounds, not compound by compound.
Columns and labels:
Type in all cases: in vivo
Nilaparvata lugens [1] = assay: Insecticidal test against Nilaparvata lugens, root part of rice seedling immersed; conditions: 100 ppm, 2% acetone aqueous solution, 10 young larvae, 25° C., after 6 days
Myzus persicae = assay: Insecticidal test against Myzus persicae, spray on radish leaves; conditions: 100 ppm; 20% acetone aqueous solution sprayed on radish leaves; 25 young larvae; 25° C.; after 5 days
Description: Insecticidal Test Against Myzus persicae
2.5 ml of a 20% acetone aqueous solution prepared to have a predetermined concentration of the test compound was sprayed on the leaves of radish (Raphanus sativus) in which the roots retained water and 25 young larvae were parasitized. After air drying, it was allowed to stand in a thermostatic chamber at 25° C., and the number of living insects and the number of dead insects were examined after 5 days.

Nilaparvata lugens [2] = assay: Insecticidal test against Nilaparvata lugens, spray on rice seedling; conditions: 100 ppm; acetone solution sprayed on rice seedling; 10 young larvae; 25° C.; after 6 days
Spodoptera litura = assay: Insecticidal test against Spodopteta litura, cabbage leaf pieces immersed; conditions: 1,000 ppm; cabbage leaf pieces immersed 30 seconds; five 2nd instar larvae; 25° C.; after 6 days
Description: Insecticidal Test Against Spodopteta litura
Cabbage (Brassicae oleracea) leaf pieces were immersed in a chemical solution prepared to have a predetermined concentration of the test compound for 30 seconds, air-dried, then placed in a 7 cm polyethylene cup with a filter paper laid thereon, and five 2nd instar larvae of Spodoptera litura were released. The container was allowed to stand in a thermostatic chamber at 25° C., and the numbers of living insects and dead insects were examined after 6 days.

Sogatella furcifera = assay: Insecticidal test against Sogatella furcifera, spray on rice seedling; conditions: 100 ppm; acetone solution sprayed on rice seedling; 10 young larvae; 25° C.; after 6 days

Measured: mortality rate

CCn1nc(-c2cn3cnc(C(F)(F)F)cc3n2)c(S(=O)(=O)CC)c1NC(=O)C(F)(F)C(F)(F)F [compound 65]
≥ 50%: all assays above

CCSc1c(-c2cn3cnc(C(F)(F)F)cc3n2)nn(C)c1NC(=O)C1CC1 [compound 67]
≥ 50%: all assays above

CCS(=O)(=O)c1c(-c2cn3cnc(C(F)(F)F)cc3n2)nn(C)c1NC(=O)CC(F)(F)F [compound 70]
not listed: Sogatella furcifera
≥ 50%: all other assays above

CCn1nc(-c2cn3cnc(C(F)(F)F)cc3n2)c(S(=O)(=O)CC)c1NC(C)=O [compound 77]
not listed: Myzus persicae
≥ 50%: all other assays above

CCCn1nc(-c2cn3cnc(C(F)(F)F)cc3n2)c(S(=O)(=O)CC)c1NC(=O)C(F)(F)C(F)F [compound 122]
not listed: Nilaparvata lugens [1]
≥ 50%: all other assays above

CCSc1c(NC(=O)C(F)(F)F)nn(CC(F)(F)F)c1-c1cn2cnc(C(F)(F)F)cc2n1 [compound 137]
≥ 50%: Spodoptera litura

CCS(=O)(=O)c1c(-c2cn3cnc(C(F)(F)F)cc3n2)nn(C)c1NC(=O)OCC(F)(F)F [compound 144]
not listed: Nilaparvata lugens [1]
≥ 50%: all other assays above

CCSc1c(-c2cn3cnc(C(F)(F)F)cc3n2)nn(CC(F)(F)F)c1NC(=O)CC [compound 161]
≥ 50%: Nilaparvata lugens [2] | Spodoptera litura

CCC(=O)Nc1c(S(=O)(=O)CC)c(-c2cn3cnc(C(F)(F)F)cc3n2)nn1CC(F)(F)F [compound 162]
≥ 50%: Myzus persicae | Nilaparvata lugens [2] | Spodoptera litura

CCSc1c(-c2cn3cnc(C(F)(F)F)cc3n2)nn(C)c1NC(=O)NC [compound 174]
≥ 50%: Spodoptera litura

CCSc1c(-c2nc3cc(C(F)(F)F)ncn3n2)nn(C)c1NC(=O)C(Cl)(Cl)Cl [compound 179]
≥ 50%: Spodoptera litura | Sogatella furcifera

CCSc1c(-c2nc3cc(C(F)(F)F)ncn3n2)nn(C)c1NC(=O)C(F)(F)C(F)F [compound 180]
≥ 50%: Nilaparvata lugens [2] | Spodoptera litura | Sogatella furcifera

CCS(=O)(=O)c1c(-c2nc3cc(C(F)(F)F)ncn3n2)nn(C)c1N [compound 181]
≥ 50%: all assays above

CCSc1c(-c2cn3cnc(C(F)(F)F)cc3n2)nn(C)c1N(C(=O)C1CCCCC1)C(=O)C1CCCCC1 [compound 214]
≥ 50%: Spodoptera litura

CCS(=O)(=O)c1c(-c2cn3cnc(C(F)(F)F)cc3n2)nn(C)c1NC(=O)C1CCCCC1 [compound 216]
≥ 50%: Spodoptera litura

CCS(=O)(=O)c1c(-c2cn3cnc(C(F)(F)F)cc3n2)nn(C)c1NC(=O)C1CCCC1 [compound 217]
not listed: Nilaparvata lugens [1]
≥ 50%: all other assays above

CCS(=O)(=O)c1c(-c2cn3c(C)nc(C(F)(F)F)cc3n2)nn(C)c1NC(=O)C(F)(F)F [compound 227]
≥ 50%: all assays above

CCS(=O)(=O)c1c(-c2cn3cnc(C(F)(F)C(F)(F)F)cc3n2)nn(C)c1NC(=O)C(F)(F)F [compound 232]
≥ 50%: all assays above

CCS(=O)(=O)c1c(-c2cn3cnc(C(F)(F)C(F)(F)F)cc3n2)nn(C)c1NC(=O)C(F)(F)C(F)(F)F [compound 255]
≥ 50%: all assays above

CCSc1c(-c2cn3c(C4CC4)nc(C(F)(F)F)cc3n2)nn(C)c1NC(=O)OC(C)(C)C [compound 258]
≥ 50%: Spodoptera litura

CCS(=O)(=O)c1c(-c2cn3c(C4CC4)nc(C(F)(F)F)cc3n2)nn(C)c1N [compound 263]
not listed: Nilaparvata lugens [1]
≥ 50%: all other assays above

CCS(=O)(=O)c1c(-c2cn3c(C4CC4)nc(C(F)(F)F)cc3n2)nn(C)c1NC(=O)C(F)(F)C(F)(F)F [compound 266]
not listed: Nilaparvata lugens [1]
≥ 50%: all other assays above

CCn1nc(-c2cn3cnc(C(F)(F)C(F)(F)F)cc3n2)c(S(=O)(=O)CC)c1NC(=O)C(F)(F)F [compound 275]
≥ 50%: all assays above

CCn1nc(-c2cn3cnc(C(F)(F)C(F)(F)F)cc3n2)c(S(=O)(=O)CC)c1NC(=O)C(F)(F)C(F)(F)F [compound 292]
≥ 50%: all assays above

CCn1nc(-c2cn3cnc(C(F)(F)C(F)(F)F)cc3n2)c(S(=O)(=O)CC)c1N [compound 293]
≥ 50%: all assays above

CCn1nc(-c2cn3cnc(C(F)(F)C(F)(F)F)cc3n2)c(S(=O)(=O)CC)c1NC(=O)C(F)(F)C(F)F [compound 328]
≥ 50%: all assays above

CCS(=O)(=O)c1c(-c2cn3cnc(C(F)(F)C(F)(F)C(F)(F)F)cc3n2)nn(C)c1NC(=O)C(F)(F)C(F)F [compound 343]
not listed: Nilaparvata lugens [1]
≥ 50%: all other assays above

CCS(=O)(=O)c1c(-c2cn3cnc(C(F)(F)C(F)(F)F)cc3n2)nn(C)c1NC(=O)C(Cl)Cl [compound 420]
not listed: Nilaparvata lugens [1]
≥ 50%: all other assays above

CCSc1c(-c2cn3cnc(C(F)(F)F)cc3n2)nn(C)c1NC(=O)CCC(C)C [compound 427]
≥ 50%: Spodoptera litura

CCS(=O)(=O)c1c(-c2cn3cnc(C(F)(F)C(F)(F)F)cc3n2)nn(C)c1NC(C)=O [compound 433]
not listed: Spodoptera litura
≥ 50%: all other assays above

CCS(=O)(=O)c1c(-c2cn3cnc(C(F)(F)F)cc3n2)nn(C)c1NC(=O)C(C)(C)C(F)(F)F [compound 436]
not listed: Spodoptera litura
≥ 50%: all other assays above
